# Only a part is listed here, and it is no random draw. Calls are pooled over several reports, among them a noisy single-well screen. The list shows a part of the results. This is one part of the list.
# Chains of the proteins cited; added tags and fusions are not shown. Lines headed by an entry give the natural chain unless they say otherwise; changes in a name come on top.
# UniProt Q8NH89: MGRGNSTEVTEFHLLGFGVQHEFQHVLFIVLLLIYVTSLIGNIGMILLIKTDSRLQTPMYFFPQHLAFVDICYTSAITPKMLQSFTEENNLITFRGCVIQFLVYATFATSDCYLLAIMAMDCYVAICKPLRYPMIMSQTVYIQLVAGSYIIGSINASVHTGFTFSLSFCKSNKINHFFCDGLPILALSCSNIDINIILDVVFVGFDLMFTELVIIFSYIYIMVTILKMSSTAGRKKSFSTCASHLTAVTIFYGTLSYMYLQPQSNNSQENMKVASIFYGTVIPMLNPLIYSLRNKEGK
# UniProt Q8NGF4: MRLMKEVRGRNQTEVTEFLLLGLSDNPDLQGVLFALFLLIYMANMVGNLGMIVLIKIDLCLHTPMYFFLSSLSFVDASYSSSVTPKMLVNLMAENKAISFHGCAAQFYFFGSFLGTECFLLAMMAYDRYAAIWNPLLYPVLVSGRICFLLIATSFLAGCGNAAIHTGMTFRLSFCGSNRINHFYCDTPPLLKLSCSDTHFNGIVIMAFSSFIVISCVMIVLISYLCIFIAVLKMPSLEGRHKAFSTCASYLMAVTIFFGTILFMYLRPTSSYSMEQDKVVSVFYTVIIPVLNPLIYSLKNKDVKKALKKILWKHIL
# UniProt Q96R08: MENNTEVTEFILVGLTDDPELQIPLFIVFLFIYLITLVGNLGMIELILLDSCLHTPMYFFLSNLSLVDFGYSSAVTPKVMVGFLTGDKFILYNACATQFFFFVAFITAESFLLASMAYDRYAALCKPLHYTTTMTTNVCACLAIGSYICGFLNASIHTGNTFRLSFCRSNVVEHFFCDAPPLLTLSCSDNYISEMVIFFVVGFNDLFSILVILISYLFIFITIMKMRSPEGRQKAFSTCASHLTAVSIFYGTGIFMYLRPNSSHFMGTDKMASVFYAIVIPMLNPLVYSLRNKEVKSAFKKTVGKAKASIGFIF
# UniProt Q96R09: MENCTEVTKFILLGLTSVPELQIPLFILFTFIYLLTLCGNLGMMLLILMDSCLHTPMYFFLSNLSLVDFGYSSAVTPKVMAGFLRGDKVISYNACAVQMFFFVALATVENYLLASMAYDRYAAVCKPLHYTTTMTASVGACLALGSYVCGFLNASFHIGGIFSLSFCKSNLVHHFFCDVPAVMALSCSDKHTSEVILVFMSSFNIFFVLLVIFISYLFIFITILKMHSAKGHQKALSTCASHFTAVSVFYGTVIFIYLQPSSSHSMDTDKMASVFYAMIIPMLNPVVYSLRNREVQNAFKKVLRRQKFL
# UniProt A6NL26: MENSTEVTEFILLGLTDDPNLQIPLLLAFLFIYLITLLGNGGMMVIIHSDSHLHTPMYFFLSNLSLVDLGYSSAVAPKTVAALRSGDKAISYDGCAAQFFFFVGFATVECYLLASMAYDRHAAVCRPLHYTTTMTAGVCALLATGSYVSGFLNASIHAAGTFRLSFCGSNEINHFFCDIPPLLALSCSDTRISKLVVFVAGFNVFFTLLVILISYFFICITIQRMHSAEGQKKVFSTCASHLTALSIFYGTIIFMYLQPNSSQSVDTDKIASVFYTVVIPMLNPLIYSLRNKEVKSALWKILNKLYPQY
# How the values were obtained:
# Settings in all cases: stereoisomer not certain
# OR5AN1 (Homo sapiens) = target: T1, OR5AN1 (Homo sapiens) (UniProt Q8NGI8)
# T1 sequence (whole entry): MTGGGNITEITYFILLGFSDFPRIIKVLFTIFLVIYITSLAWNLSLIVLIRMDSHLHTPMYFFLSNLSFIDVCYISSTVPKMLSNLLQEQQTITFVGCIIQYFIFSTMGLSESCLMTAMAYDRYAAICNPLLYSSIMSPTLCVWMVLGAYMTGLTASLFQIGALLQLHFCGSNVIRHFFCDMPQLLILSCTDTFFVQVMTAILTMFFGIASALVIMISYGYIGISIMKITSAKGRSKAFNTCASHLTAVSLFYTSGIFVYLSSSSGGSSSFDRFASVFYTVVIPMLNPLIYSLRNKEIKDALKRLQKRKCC
# Outline: (§1)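 Each receptor–molecule pair is labelled responsive or non-responsive (inactive) according to whether the original authors judged the measured signal statistically different from baseline. The data were taken from the main text and supplementary material of published papers and checked for typos and inconsistencies. Assay methods differed by source, with transient luciferase assays in mammalian cell lines being common.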
# OR5AR1 (Homo sapiens) = target: T2, OR5AR1 (Homo sapiens) (UniProt Q8NGP9)
# T2 sequence (whole entry): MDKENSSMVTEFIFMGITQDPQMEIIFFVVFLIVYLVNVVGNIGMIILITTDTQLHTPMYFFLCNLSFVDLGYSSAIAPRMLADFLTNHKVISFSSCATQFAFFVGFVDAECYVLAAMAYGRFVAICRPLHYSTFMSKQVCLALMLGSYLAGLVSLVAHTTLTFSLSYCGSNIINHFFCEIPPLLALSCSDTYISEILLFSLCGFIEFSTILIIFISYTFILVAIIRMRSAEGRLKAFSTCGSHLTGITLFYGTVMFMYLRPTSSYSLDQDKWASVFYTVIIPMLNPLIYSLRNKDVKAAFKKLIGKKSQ
# Outline: as §1
# OR5AS1 (Homo sapiens) = target: T3, OR5AS1 (Homo sapiens) (UniProt Q8N127)
# T3 sequence (whole entry): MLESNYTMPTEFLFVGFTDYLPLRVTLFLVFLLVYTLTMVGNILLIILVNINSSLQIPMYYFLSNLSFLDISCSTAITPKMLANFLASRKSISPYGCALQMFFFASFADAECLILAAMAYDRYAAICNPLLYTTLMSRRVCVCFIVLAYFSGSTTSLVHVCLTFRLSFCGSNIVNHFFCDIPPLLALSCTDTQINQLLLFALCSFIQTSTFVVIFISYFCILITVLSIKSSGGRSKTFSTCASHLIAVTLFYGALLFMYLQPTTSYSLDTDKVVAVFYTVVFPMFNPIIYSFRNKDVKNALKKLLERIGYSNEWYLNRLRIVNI
# Outline: as §1
# OR5AU1 (Homo sapiens) = target: T4, OR5AU1 (Homo sapiens) (UniProt Q8NGC0)
# T4 sequence (whole entry): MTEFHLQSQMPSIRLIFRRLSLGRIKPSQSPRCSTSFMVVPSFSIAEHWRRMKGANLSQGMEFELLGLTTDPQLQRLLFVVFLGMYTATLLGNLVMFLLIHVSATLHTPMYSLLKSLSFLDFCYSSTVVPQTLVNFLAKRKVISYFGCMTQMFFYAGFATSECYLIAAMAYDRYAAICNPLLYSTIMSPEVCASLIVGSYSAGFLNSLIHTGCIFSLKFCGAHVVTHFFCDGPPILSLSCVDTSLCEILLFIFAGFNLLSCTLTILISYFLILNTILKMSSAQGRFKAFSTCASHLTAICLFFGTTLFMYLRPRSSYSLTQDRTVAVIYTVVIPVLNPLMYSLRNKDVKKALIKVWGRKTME
# Outline: as §1
# OR5B17 (Homo sapiens) = target: T5, OR5B17 (Homo sapiens) (UniProt Q8NGF7)
# T5 sequence (whole entry): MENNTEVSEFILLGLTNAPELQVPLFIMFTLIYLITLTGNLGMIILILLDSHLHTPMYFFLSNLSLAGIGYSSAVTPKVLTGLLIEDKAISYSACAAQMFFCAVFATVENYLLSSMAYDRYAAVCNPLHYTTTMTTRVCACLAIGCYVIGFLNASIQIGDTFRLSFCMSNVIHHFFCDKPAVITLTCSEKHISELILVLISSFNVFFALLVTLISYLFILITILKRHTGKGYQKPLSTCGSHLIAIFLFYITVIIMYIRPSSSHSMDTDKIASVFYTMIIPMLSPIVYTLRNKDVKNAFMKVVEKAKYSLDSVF
# Outline: as §1
# OR5AK3P (Homo sapiens) = OR5AK3P (Homo sapiens) (UniProt Q8NH89)
# Outline: as §1
# OR5AP2 (Homo sapiens) = OR5AP2 (Homo sapiens) (UniProt Q8NGF4)
# Outline: as §1
# OR5B12 (Homo sapiens) = OR5B12 (Homo sapiens) (UniProt Q96R08)
# Outline: as §1
# OR5B2 (Homo sapiens) = OR5B2 (Homo sapiens) (UniProt Q96R09)
# Outline: as §1
# OR5B21 (Homo sapiens) = OR5B21 (Homo sapiens) (UniProt A6NL26)
# Outline: as §1
# 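Note: active if original authors judged signal statistically different from baseline.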
Compound,odorant receptor agonist call (OR5AN1 (Homo sapiens)),odorant receptor agonist call (OR5AR1 (Homo sapiens)),odorant receptor agonist call (OR5AS1 (Homo sapiens)),odorant receptor agonist call (OR5AU1 (Homo sapiens)),odorant receptor agonist call (OR5B17 (Homo sapiens)),odorant receptor agonist call (OR5AK3P (Homo sapiens)),odorant receptor agonist call (OR5AP2 (Homo sapiens)),odorant receptor agonist call (OR5B12 (Homo sapiens)),odorant receptor agonist call (OR5B2 (Homo sapiens)),odorant receptor agonist call (OR5B21 (Homo sapiens))
CC(=O)OC(C)(C)C1CC=C(C)CC1 (stereo unspecified),inactive,inactive,inactive,inactive,inactive,,,,,
CC(C)=CCCC(C)=CC=O,inactive,inactive,inactive,inactive,inactive,,,,,
COc1cc(C=O)ccc1O,inactive,inactive,inactive,inactive,inactive,,,,,
COc1cc(C)ccc1O,inactive,inactive,inactive,inactive,inactive,,,,,
CCCCCCCCOC(C)=O,inactive,inactive,inactive,inactive,inactive,,,,,
CCCCO,inactive,inactive,inactive,inactive,inactive,,,,,
CC(=O)c1ccccc1,inactive,inactive,inactive,inactive,inactive,,,,,
CCCCCCCCCC=O,inactive,inactive,inactive,inactive,inactive,,,,,
C=CCc1ccc(OC(C)=O)c(OC)c1,inactive,inactive,inactive,inactive,,,,,,
CCCCCC(=O)O,inactive,inactive,inactive,inactive,inactive,,,,,
C=CCc1ccc(OC)c(OC)c1,inactive,inactive,inactive,inactive,inactive,,,,,
CCCCCC(C)=O,inactive,inactive,inactive,inactive,inactive,,,,,
CC12C=CCC1C1CCC3CC(=O)CCC3(C)C1CC2 (stereo unspecified),inactive,,active,inactive,,inactive,inactive,inactive,inactive,inactive
C=CC(C)(O)CCC=C(C)C (stereo unspecified),inactive,inactive,inactive,inactive,inactive,,,,,
CC1CCC(C(C)C)C(O)C1 (stereo unspecified),inactive,inactive,inactive,inactive,inactive,,,,,
O=C1CCCCCCCCCCCC(=O)OCCO1,active,inactive,inactive,inactive,inactive,,,,,
CC(C)CC(=O)O,inactive,inactive,inactive,inactive,inactive,,,,,
CCC=CCCO,inactive,inactive,inactive,inactive,inactive,,,,,
O=CCc1ccccc1,inactive,inactive,inactive,inactive,inactive,,,,,
C=CCSCC=C,inactive,inactive,inactive,inactive,inactive,,,,,
O=C1CCCCC1,inactive,inactive,active,inactive,inactive,,,,,
CC12CCC(CC1)C(C)(C)O2,inactive,inactive,inactive,inactive,inactive,,,,,
CC(=O)OCC=C(C)CCC=C(C)C,inactive,inactive,inactive,inactive,inactive,,,,,
CC1=NC(C)SC1C (stereo unspecified),inactive,inactive,inactive,inactive,inactive,,,,,
c1cnccn1,inactive,inactive,inactive,inactive,inactive,,,,,

Compound,odorant receptor agonist call (OR5AN1 (Homo sapiens)),odorant receptor agonist call (OR5AR1 (Homo sapiens)),odorant receptor agonist call (OR5AS1 (Homo sapiens)),odorant receptor agonist call (OR5AU1 (Homo sapiens)),odorant receptor agonist call (OR5B17 (Homo sapiens)),odorant receptor agonist call (OR5AK3P (Homo sapiens)),odorant receptor agonist call (OR5AP2 (Homo sapiens)),odorant receptor agonist call (OR5B12 (Homo sapiens)),odorant receptor agonist call (OR5B2 (Homo sapiens)),odorant receptor agonist call (OR5B21 (Homo sapiens))
c1ccc(Oc2ccccc2)cc1,inactive,inactive,inactive,inactive,inactive,,,,,
CC1=CCC(C(C)(C)O)CC1 (stereo unspecified),inactive,inactive,inactive,inactive,inactive,,,,,
CCCCCCOC(=O)CCC,inactive,inactive,inactive,inactive,inactive,,,,,
COc1ccccc1O,inactive,inactive,inactive,inactive,inactive,,,,,
CC(C)C=O,inactive,inactive,inactive,inactive,inactive,,,,,
COC(=O)c1ccccc1,inactive,inactive,inactive,inactive,inactive,,,,,
CCCCCCCCCCC=O,inactive,inactive,inactive,inactive,inactive,,,,,
CC=Cc1ccc(O)c(OC)c1,inactive,active,inactive,inactive,inactive,,,,,
COC(=O)c1ccccc1O,inactive,inactive,inactive,inactive,inactive,,,,,
CC12C=CCC1C1CCC3=CC(=O)CCC3(C)C1CC2 (stereo unspecified),inactive,inactive,inactive,inactive,inactive,,,,,
CC12CCC(C1)C(C)(C)C2=O (stereo unspecified),inactive,inactive,inactive,inactive,inactive,,,,,
CCC1(O)C2(C)CCC(C2)C1(C)C (stereo unspecified),inactive,inactive,inactive,inactive,inactive,,,,,
CC(C)CCC(=O)O,inactive,inactive,inactive,inactive,inactive,,,,,
CCCCCCCC=O,inactive,inactive,inactive,inactive,inactive,,,,,
O=C1CCCCCCCCCCCCCCO1,,inactive,inactive,inactive,inactive,,,,,
CCCCCCCC=CC=O,inactive,inactive,inactive,inactive,inactive,,,,,
CC(C)(C)c1ccc(CCC=O)cc1,inactive,inactive,inactive,inactive,inactive,,,,,
CCCC(=O)O,inactive,inactive,active,inactive,inactive,,,,,
CC(=O)OC1CC2CCC1(C)C2(C)C (stereo unspecified),inactive,inactive,inactive,inactive,inactive,,,,,
CCCCCOC(C)=O,inactive,inactive,inactive,inactive,inactive,,,,,
CC1COCc2cc3c(cc21)C(C)(C)C(C)C3(C)C (stereo unspecified),active,active,inactive,active,inactive,,,,,
CC(=O)C(C)=O,inactive,inactive,inactive,inactive,inactive,,,,,
CC(C)C(=O)O,inactive,inactive,inactive,inactive,inactive,,,,,
CCCCCCCOC(C)=O,inactive,inactive,inactive,inactive,inactive,,,,,

# In a second layout: 15 of the compounds above.
Compound	odorant receptor agonist call (OR5AN1 (Homo sapiens))	odorant receptor agonist call (OR5AR1 (Homo sapiens))	odorant receptor agonist call (OR5AS1 (Homo sapiens))	odorant receptor agonist call (OR5AU1 (Homo sapiens))	odorant receptor agonist call (OR5B17 (Homo sapiens))	odorant receptor agonist call (OR5AK3P (Homo sapiens))	odorant receptor agonist call (OR5AP2 (Homo sapiens))	odorant receptor agonist call (OR5B12 (Homo sapiens))	odorant receptor agonist call (OR5B2 (Homo sapiens))	odorant receptor agonist call (OR5B21 (Homo sapiens))
O=C1CCCCCCCCCCCC(=O)OCCO1	active	inactive	inactive	inactive	inactive					
CC(C)CC(=O)O	inactive	inactive	inactive	inactive	inactive					
CCC=CCCO	inactive	inactive	inactive	inactive	inactive					
O=CCc1ccccc1	inactive	inactive	inactive	inactive	inactive					
C=CCSCC=C	inactive	inactive	inactive	inactive	inactive					
O=C1CCCCC1	inactive	inactive	active	inactive	inactive					
CC12CCC(CC1)C(C)(C)O2	inactive	inactive	inactive	inactive	inactive					
CC(=O)OCC=C(C)CCC=C(C)C	inactive	inactive	inactive	inactive	inactive					
CC1=NC(C)SC1C (stereo unspecified)	inactive	inactive	inactive	inactive	inactive					
c1cnccn1	inactive	inactive	inactive	inactive	inactive					
c1ccc(Oc2ccccc2)cc1	inactive	inactive	inactive	inactive	inactive					
CC1=CCC(C(C)(C)O)CC1 (stereo unspecified)	inactive	inactive	inactive	inactive	inactive					
CCCCCCOC(=O)CCC	inactive	inactive	inactive	inactive	inactive					
COc1ccccc1O	inactive	inactive	inactive	inactive	inactive					
CC(C)C=O	inactive	inactive	inactive	inactive	inactive					

# From the M2OR odorant receptor database
